The values that follow come from patent US20190144517A1 (SHANGHAI JW INFLINHIX, published 2019).

Results are given in words; binding and its absence hold for the method and conditions named. Some entries that bind do so weakly or less than the wild type.

Assay [1] deals with monoclonal antibody 244-12. The assay is described as follows: competition ELISA on coated TNF. For orientation: An ELISA detects its analyte on a solid surface through an enzyme-linked reagent.
Assay [2] addresses monoclonal antibody 244-12. The assay can be described thus: competition ELISA: TNF coated, peptide added, then 244-12.
For assay [3], the target named is monoclonal antibody 244-12. The assay is described as follows: summary table, column 'binding to cell necrosis-promoting antibodies'.
Assay [4] has as its target Tumor necrosis factor alpha (TNF) (human) (UniProt P01375). The assay can be described thus: ELISA, TNF coated, screen of 33 mAbs.
Assay [5] shares this target. The assay can be described thus: confocal immunofluorescence on L929 cells.
Assay [6] concerns the target monoclonal antibody 244-12. The assay can be described thus: ELISA, plate coated with 2 µg/ml of P11-17.
The target of assay [7] is monoclonal antibody 244-12. The assay can be described thus: ELISA, plate coated with 2 µg/ml of P11-17, anti-mouse IgG-HRP.

DNQLVVPSEG [polypeptide P13-1]: the binding result in assay [1], in assay [2] and in assay [3] was “binds” each time.
For the molecule RDNQLVVPSE [polypeptide P12-10], the binding entry in assay [1], in assay [2] and in assay [3] was “binds” each time.
On to NQLVVPSEGL [polypeptide P13-2], for which the binding result in assay [1], in assay [2] and in assay [3] was “binds” in each case.

B1: monoclonal antibody 244-12 (antibody, mouse IgG2b, kappa, V domains shown)
VH: QIQLVQSGPELKKPGETVKISCKASGYTFTNYGMNWVKQAPGKGLKWMGWINTYTGEPTYADDFKGRFAFSLETSANTAYLQINNLRNEGMATYFCARHYRYAWFPYWGQGTLVTVSA
VL: DIQMTQSPASLSASVGETVTITCRASGNIHIYLAWYQQKQGKSPQLLVYNAKTLADGVPSRFSGSGSGTQYSLKINSLQPEDFGSYYCQHFWSIPWTFGGGTKLEIKR
notes: It was detected with an anti-mouse IgG secondary antibody
For the molecule B1, the binding entry in assay [4] and in assay [5] was “binds” in each case.

B2: polypeptide P11-17 (peptide)
chain: QLQWLNRRANALLANGVELRDNQLVVPSEGLYLIYSQVLFKGQGCPSTHVLLTHTISRIAVSYQTKVNLLSAIKSPCQRE
With B2, the binding entry in assay [6], in assay [7] and in assay [3] was “binds” in each case.

B3: P11-17 (mutant, SY mutation) (peptide)
chain: QLQWLNRRANALLANGVELRDNQLVVPSEGLYLIYSQVLFKGQGCPSTHVLLTHTISRIAVFHQTKVNLLSAIKSPCQRE
With B3, in assay [3], the binding entry is reported as “binds”.
Consider QLVVPSEGLY [polypeptide P13-3], for which the binding entry in assay [1], in assay [2] and in assay [3] was “binds” throughout.
